Drawing on PubChem BioAssay AID1918940 (Molecular Pharmacology Branch, DTP, NCI, 2023), this text covers viability, T/C for one molecule.

Several values for one entry are separate records, joined by “and”; a condition that tells them apart may be missing. Equal entries are not always repeated. Further values from the same series stand in other lists.

In the test the test system is NCI-H211 complex spheroid viability. Description: Anticancer human tumor NCI-H211 cell line growth inhibition [LSD1].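 Further: luminescent viability read after seven days of drug exposure; 100% = DMSO vehicle control viability.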 As to conditions: compound 10 µM; hits give low values. The source says:
Multicellular complex tumor spheroid response to LSD1 Inhibitor Iadademstat in combination with a variety of drugs and investigational agents in selected tumor cell lines
The current study was undertaken to assess response to LSD1 inhibitors in combination with standard-of-care drugs and investigational agents in solid tumor complex spheroid models as well as in the K-562 leukemia. Complex spheroids include a stromal component modeled by human endothelial cells (HUVEC) and fibroblasts modeled by human mesenchymal stem cells (MSCs). The concentration ranges selected for each drug and investigational agent were based upon clinically achievable concentrations if the clinical Cmax of the agent was known.
Compounds. The drugs and investigational agents used in this study are listed on Table 1. All of the agents used, including staurosporine (NSC755774) and gemcitabine (NSC613327), were obtained from the Developmental Therapeutics Program, NCI. FDA-approved anticancer drugs are available from the NCI at http://dtp.nci.nih.gov/branches/dscb/oncology_drugset_explanation.html. Drugs and investigational agents were >95% pure by proton nuclear magnetic resonance (NMR) and liquid chromatography/mass spectrometry (LC/MS). […] If the clinical Cmax for an agent had not been determined, the highest concentration tested was 10 microM. […]

For `NC1CCC(NC2CC2c2ccccc2)CC1` (stereo unspecified), the viability, T/C is 37.2% and 29.1%.
